Source: patent publication US11850283B2, “Liponucleotide-based therapy for asthma” (priority 2017, dated 2023)

Test: i.p. CDP-CHO treatment of mock-inoculated mice, lung function
Assay type: in vivo
Conditions: day 6, CDP-CHO 100 μg/mouse i.p.

With `C[N+](C)(C)CCO[P@TB16](=O)(O)O[P@TB16](=O)(O)OC[C@H]1O[C@@H](n2ccc(N)nc2=O)[C@H](O)[C@@H]1O` [CDP-CHO, CDP-choline] the “HR (bpm)” value was 730 ± 10 bpm and the “SaO2 (%)” value was 99.0 ± 0.2%.
